Measured values reported in PubChem BioAssay AID1117319 (Southern Research Institute, 2015).
The whole screen tested about 260,000 compounds, of which about 1,500 (0.58%) were called active. The inconclusive results got no clear call from the source; some entries with a clear call stand among them for comparison.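 Rule for the calls: active = inhibition above a set limit at one or more doses, reproduced on every date tested; inconclusive = results disagree between test dates, or hit never tested in dose response; inactive = the rest.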

Chains of the proteins cited; added tags and fusions are not shown. Lines headed by an entry give the natural chain unless they say otherwise; changes in a name come on top.
UniProt P69720: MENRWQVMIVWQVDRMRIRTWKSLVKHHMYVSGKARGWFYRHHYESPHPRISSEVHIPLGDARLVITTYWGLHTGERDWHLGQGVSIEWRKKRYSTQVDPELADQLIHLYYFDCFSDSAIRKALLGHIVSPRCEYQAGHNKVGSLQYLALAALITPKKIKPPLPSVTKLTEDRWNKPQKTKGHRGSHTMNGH
UniProt P69721: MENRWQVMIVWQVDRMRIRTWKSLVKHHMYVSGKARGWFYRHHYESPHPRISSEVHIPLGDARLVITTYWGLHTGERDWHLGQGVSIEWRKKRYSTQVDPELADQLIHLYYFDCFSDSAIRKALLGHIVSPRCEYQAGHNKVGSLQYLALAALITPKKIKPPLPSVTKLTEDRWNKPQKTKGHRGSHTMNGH
UniProt P69722: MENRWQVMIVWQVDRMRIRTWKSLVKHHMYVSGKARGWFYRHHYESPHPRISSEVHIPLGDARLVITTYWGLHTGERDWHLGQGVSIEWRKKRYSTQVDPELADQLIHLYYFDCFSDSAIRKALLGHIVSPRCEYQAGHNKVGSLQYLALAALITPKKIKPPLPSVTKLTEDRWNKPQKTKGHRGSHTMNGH
UniProt P69723: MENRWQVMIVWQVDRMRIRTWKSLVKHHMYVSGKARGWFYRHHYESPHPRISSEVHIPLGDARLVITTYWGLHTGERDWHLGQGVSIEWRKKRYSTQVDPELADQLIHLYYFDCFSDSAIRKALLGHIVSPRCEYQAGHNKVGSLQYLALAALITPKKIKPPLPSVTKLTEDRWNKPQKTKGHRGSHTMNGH
UniProt Q9HC16: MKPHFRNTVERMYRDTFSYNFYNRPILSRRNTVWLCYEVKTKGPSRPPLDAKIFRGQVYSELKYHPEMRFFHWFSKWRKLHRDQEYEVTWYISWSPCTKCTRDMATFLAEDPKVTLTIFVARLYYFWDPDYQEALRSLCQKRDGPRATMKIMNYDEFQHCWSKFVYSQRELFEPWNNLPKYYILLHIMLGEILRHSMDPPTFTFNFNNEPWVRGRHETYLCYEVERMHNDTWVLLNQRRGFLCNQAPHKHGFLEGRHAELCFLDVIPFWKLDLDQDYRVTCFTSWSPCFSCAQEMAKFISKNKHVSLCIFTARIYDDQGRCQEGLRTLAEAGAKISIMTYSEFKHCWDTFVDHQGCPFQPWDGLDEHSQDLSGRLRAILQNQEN

target: Virion infectivity factor (Human immunodeficiency virus type 1 group M subtype B (isolate BH10)) + Virion infectivity factor (Human immunodeficiency virus type 1 group M subtype B (isolate BRU/LAI)) + Virion infectivity factor (Human immunodeficiency virus type 1 group M subtype B (isolate PCV12)) + Virion infectivity factor (Human immunodeficiency virus type 1 group M subtype B (isolate HXB2)) + DNA dC->dU-editing enzyme APOBEC-3G (Homo sapiens) (UniProt P69720+P69721+P69722+P69723+Q9HC16); assay: inhibitors of Vif binding to APOBEC3G peptide, primary screen, biochemical, TR-FRET, GST-Vif 1-94, biotin-A3G peptide, dose response retest (AID 1117319); conditions: active compounds read high;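 note: Vif residues 1-94 fused to GST binding biotinylated APOBEC3G peptide 110-148; 0% = full assay without inhibitor and 100% = GST in place of GST-Vif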

SMILES | inhibition
O=C(COC(=O)c1ccc(NS(=O)(=O)c2cccs2)cc1O)NCc1ccccc1 | inconclusive: 39.6%
O=C(COc1ccccc1)Nc1ccc(Cl)c(-c2nc3ncccc3o2)c1 | inconclusive: 41.8%
OC(COCc1ccccc1)CN1CCc2ccccc2C1 (configuration not stated) | inconclusive: 41.6%
Cn1c(=O)[nH]c(=O)c2c1ncn2CCN1CCOCC1 | inconclusive: 33.6%
CN(C)NC(=S)NC1CC2CCC1C2 (configuration not stated) | inconclusive: 53.4%
Cc1ccccc1Nc1scc(-c2ccc(Cl)cc2)[n+]1-c1ccccc1C | inconclusive: 33.6%
CN1CCN(NC(=O)c2ccc(Br)s2)CC1 | inconclusive: 50.3%
CC1(C)Oc2nc3ccccc3n2/C1=C\C#N | inconclusive: 33.9%
O=C1C[C@@H](c2ccc(O[C@@H]3O[C@H](CO)[C@@H](O)[C@H](O)[C@H]3O)cc2)Oc2cc(O)ccc21 | inconclusive: 36.6%
C=CCc1cccc2cc(C(=O)O)c(=O)oc12 | inconclusive: 50.5%
O=C(COC(=O)c1cc[n+]([O-])cc1)NCC12CC3CC(CC(C3)C1)C2 | inconclusive: 46.1%
CC1(OC(=O)CCc2ccccc2)C(=O)C=C2C=C(c3ccc(C#N)cc3)N(CC3CC3)C=C2C1=O (configuration not stated) | inactive: -1.42%
O=C(Nc1ccc2c(c1)OCCO2)NC1(C(F)(F)F)Oc2ccccc2O1 | inconclusive: 46.1%
O=C(c1ccccc1)c1n[nH]c(-c2ccccc2)cc1=O | inactive: 0.47%
O=C(COC(=O)c1ccccc1C(=O)N1CCN(c2ccccc2)CC1)Nc1ccc(F)cc1 | inconclusive: 42.2%
Cc1ccc(-c2csc(Cc3nc(-c4ccc5c(c4)CCC(=O)N5)cs3)n2)cc1 | inconclusive: 52%
O=C(NNC1=Nc2ccccc2SC1)c1cccc([N+](=O)[O-])c1 | inconclusive: 43.4%
COC(=O)c1cc(C(=O)Nc2ccc(C)cn2)cc([N+](=O)[O-])c1 | inconclusive: 61.1%
C=COCCNC(=S)N1CCOCCOCCN(C(=S)NCCOC=C)CCOCC1 | inconclusive: 59.3%
O=C(CSc1n[nH]c(-c2ccc(S(=O)(=O)N3CCCCC3)cc2)n1)Nc1nccs1 | inconclusive: 40.8%
CC(C)(C)c1ccc(/C=C/C(=O)N2CCc3ccccc3C2)cc1 | inactive: 7.01%
CCc1ccc(N2CC(C)Cn3c2nc2c3c(=O)n(CCN3CCOCC3)c(=O)n2C)cc1 (configuration not stated) | inconclusive: 35.8%

SMILES | inhibition
O=C(NCc1ccco1)c1ccc(Cn2c(=O)c3ccccc3n(Cc3cccc(F)c3)c2=O)cc1 | inconclusive: -3.07%
CCSc1nnc(NC(=O)C2C3C=CC(C3)C2C(=O)O)s1 (configuration not stated) | inconclusive: 54.9%
O=C(Nc1ccc2nsnc2c1)NC1CCCCC1 | inactive: -12.3%
O=C(c1cccs1)N(c1cccc(Cl)c1)C1C=CS(=O)(=O)C1 (configuration not stated) | inconclusive: 64.5%
COc1ccc(-c2cc(OC(=O)c3ccc(F)cc3)c3c(C)oc(C)c3c(=O)c2)cc1 | inconclusive: 55.9%
Cc1cccc(-n2nnc(C(=O)Nc3ccc(F)cc3)c2N)c1 | inconclusive: 52.1%
CC(=O)c1cccc(NC(=O)c2ccoc2C)c1 | inactive: 7.62%
O=C(CN1CCN(Cc2ccccc2)CC1)N/N=C\C=C/c1ccco1 | inactive: 29.4%
O=C(COC(=O)/C=C/c1ccco1)NCc1ccco1 | inconclusive: 53.7%
COCCN(C(=O)CSc1nc2ccccc2c(=O)n1CC(C)C)c1c(N)n(Cc2ccccc2)c(=O)[nH]c1=O | inconclusive: 41.5%
CC(=O)c1c(C)nn(C(C)CC(=O)O)c1C (configuration not stated) | inconclusive: 38.1%
Cc1c(O)ccc(/C=N/Nc2nc(-c3cccnc3)nc3ccccc23)c1O | inconclusive: 64.3%
CCc1cccc(NS(=O)(=O)c2ccc3c(c2)N(C)CCO3)c1 | inconclusive: 35.5%
CCOc1ccc(S(=O)(=O)NCc2ccccn2)c(C)c1C | inconclusive: 43.5%
CC(C)=CC(=O)Nc1ccccc1C(N)=O | inconclusive: 43.5%
CCN1CCN(CC(=O)Nc2cc(S(=O)(=O)N3CCCCC3)ccc2Cl)CC1 | inactive: -1.15%
COc1ccccc1CN1C(=O)[C@@H]2C(CCC(N)=O)NC3(C(=O)Nc4c3ccc(Cl)c4C)[C@@H]2C1=O (some centres not stated) | inconclusive: 61.5%
COC(=O)C(NC(=O)c1ccco1)(Nc1cc(C)ccn1)C(F)(F)F (configuration not stated) | inconclusive: 33%
Oc1c(C(Nc2nc3ccccc3s2)c2ccco2)ccc2cccnc12 (configuration not stated) | inconclusive: 61.9%
O=C1c2cccc3cccc(c23)C(=O)N1c1ccc2ncccc2c1 | inconclusive: 34.1%
C=CCN(CC=C)C(=S)NC(=O)c1ccc(OC)c(Br)c1 | inactive: 3.9%
O=C(NCCN1CCN(C(=O)c2ccc([N+](=O)[O-])cc2)CC1)C(=O)Nc1ccc(F)cc1 | inconclusive: 51.2%

SMILES | inhibition
CN(CC(=O)NC(=O)NCc1ccco1)CC(=O)Nc1ccccc1Cl | inconclusive: 42.5%
CN(C)S(=O)(=O)c1cccc(NC(=O)CSc2nncn2-c2ccccc2)c1 | inactive: 1.63%
CCCCN(Cc1ccccc1)C(=O)C1CCN(S(=O)(=O)c2c(C)noc2C)CC1 | inconclusive: 62.3%
CC(C)C(NS(=O)(=O)c1cccs1)C(=O)NCc1ccc2c(c1)OCO2 (configuration not stated) | inconclusive: 48.1%
CC(=O)OCCNc1cc(SCc2ccco2)c2nonc2c1[N+](=O)[O-] | inconclusive: 36.5%
COc1ccc(N2CCN(c3ccc([N+](=O)[O-])nc3)CC2)cc1 | inconclusive: 60%
COc1ccc(-c2cc(C(=O)N3CCCc4ccccc43)no2)cc1OC | inconclusive: 39.1%
COCCNC(=S)N1CCCC(CO)C1 (configuration not stated) | inconclusive: 39.5%
CCN(c1ccc(F)cc1)S(=O)(=O)c1ccc2[nH]cc(C(=O)NCCCN3CCOCC3)c(=O)c2c1 | inconclusive: 34.7%
Cc1ccc2cccc(SCC(=O)NCc3ccco3)c2n1 | inactive: 5.4%
Cc1ccc(NC(=O)NCCSc2ccc(C)cc2)cc1 | inconclusive: 43.4%
CCN1C(=O)C(CC(=O)Nc2ccc(OC)cc2)N(Cc2ccc3c(c2)OCO3)C1=S (configuration not stated) | inconclusive: 63.6%
COc1ccc2[nH]c(C)c(CCN(Cc3cccs3)C(=S)Nc3cccc(F)c3)c2c1 | inconclusive: 27.4%
CC(=O)N1CCCc2cc(S(=O)(=O)NCc3ccc(C)cc3)ccc21 | inconclusive: 60.9%
COc1ccc(OC)c(-n2c(=O)c3ccccc3c3ccccc3c2=O)c1 | inconclusive: 44.6%
CCCc1cc(C(=O)N(C2CCCCC2)C2CCCCC2)no1 | inconclusive: -2.89%
COc1ccc(-c2ccc(C#N)c(SCC(=O)NCCc3ccccc3)n2)cc1OC | inconclusive: 50.6%
COc1ccc(CC(=O)Nc2ccc(N3CCCCC3)cc2)cc1 | inconclusive: 34.1%
Cc1ccc(CNc2nc3ccccc3n2C)cc1 | inconclusive: 39.6%
CCCn1c(CCC(=O)O)nc2cc(S(=O)(=O)N3CCCC3)ccc21 | inconclusive: 38%
CC1CCCC2(C1)NC(=S)c1c(sc3c1CCCC3)N2 (configuration not stated) | inconclusive: 42.6%
OCCC1CN(Cc2cccn2-c2cccnc2)CCN1Cc1ccc(F)cc1 (configuration not stated) | inconclusive: 38.3%

SMILES | inhibition
CC(C)C(=O)Nc1cccc(NC(=O)CCN2C(=O)c3ccccc3S2(=O)=O)c1 | inconclusive: 38.1%
CC(C)CC(=O)Nc1ccc(N2CCOCC2)cc1 | inactive: -0.35%
Cn1c(=O)c2nc(-c3ccc(Cl)cc3Cl)oc2c2ccccc21 | inconclusive: 38.9%
CCN(CC)S(=O)(=O)c1ccc(N2C(=O)CC2(/C=C/c2ccccc2)C(=O)NC2CCCC2)cc1 (configuration not stated) | inconclusive: 46.2%
NS(=O)(=O)c1ccc(CCNC(=O)C(=O)c2c[nH]c3ccccc23)cc1 | inconclusive: 47.6%
COc1ccc(-n2c(=O)c(CCC(=O)N(C)Cc3cccs3)nc3ccccc32)cc1 | inactive: -5.63%
Cc1cccc(Cn2nc(C)cc2NC(=O)CCCn2ccc([N+](=O)[O-])n2)c1 | inconclusive: 40.1%
CCC(OC(=O)CC1Sc2ccccc2NC1=O)C(=O)NCC1CCCO1 (configuration not stated) | inconclusive: 60%
Cn1c(/C(C#N)=C(\O)c2ccc(S(=O)(=O)N3CCCCC3)cc2)nc2ccccc21 | inconclusive: 45.8%
Cc1c(/C=N\NC(=O)c2cc3ccccc3o2)c2ccccc2n1C | inconclusive: 34.6%
CCCCNC(=O)Oc1c(Br)cc2sc(=O)oc2c1Br | inconclusive: 43.7%
CC(C)(C)n1nnnc1C(c1cccnc1)N1CCN(c2cccc(C(F)(F)F)c2)CC1 (configuration not stated) | inconclusive: 44.6%
CC(Nc1nc(N2CCN(CCO)CC2)nc2ccccc12)c1ccccc1 (configuration not stated) | inconclusive: 62.2%
CN1CCN(C(c2cccnc2)c2ccc3cccnc3c2O)CC1 (configuration not stated) | inconclusive: 53%
O=Nc1c(O)n(Cc2ccc(Cl)cc2)c2ccccc12 | inconclusive: 55%
Cc1ccc(CN2C(=O)CC(Nc3ccc(N4CCOCC4)cc3)C2=O)cc1 (configuration not stated) | inactive: 4.98%
COc1nc(-c2ccc(Cl)cc2)ccc1-c1noc(-c2cccs2)n1 | inconclusive: 41.8%
COC(=O)c1cc(NS(=O)(=O)c2ccc(NCc3cccnc3)c([N+](=O)[O-])c2)cc(C(=O)OC)c1 | inconclusive: 46.5%
Cc1nn(Cc2ccc(Cl)cc2Cl)c(C)c1NC(=O)c1sc2ccccc2c1Cl | inconclusive: 36.3%
O=C(/C=C/c1ccoc1)c1ccccc1O | inconclusive: 34.4%
N#Cc1c(N2CCOCC2)nc(N)c2c(N)nc3c(c12)CC(CCl)O3 (configuration not stated) | inconclusive: 36%

Pulled by structure from above (three):
SMILES | inhibition
CC(Nc1nc(N2CCN(CCO)CC2)nc2ccccc12)c1ccccc1 (configuration not stated) | inconclusive: 62.2%
Cc1nn(Cc2ccc(Cl)cc2Cl)c(C)c1NC(=O)c1sc2ccccc2c1Cl | inconclusive: 36.3%
CCCCNC(=O)Oc1c(Br)cc2sc(=O)oc2c1Br | inconclusive: 43.7%

At a glance, some entries already given.
SMILES | inhibition
NS(=O)(=O)c1ccc(CCNC(=O)C(=O)c2c[nH]c3ccccc23)cc1 | inconclusive: 47.6%
COc1ccc(-n2c(=O)c(CCC(=O)N(C)Cc3cccs3)nc3ccccc32)cc1 | inactive: -5.63%
Cc1cccc(Cn2nc(C)cc2NC(=O)CCCn2ccc([N+](=O)[O-])n2)c1 | inconclusive: 40.1%
CCC(OC(=O)CC1Sc2ccccc2NC1=O)C(=O)NCC1CCCO1 (configuration not stated) | inconclusive: 60%
Cn1c(/C(C#N)=C(\O)c2ccc(S(=O)(=O)N3CCCCC3)cc2)nc2ccccc21 | inconclusive: 45.8%
